Assay results from PMC6525112.
No constants are given. Whether binding was seen depends on the method and setting. Some results given as binding are weak or reduced against the parent protein; the word gives no strength.

The chains behind the UniProt entries cited, without tags or fusion partners. Residues count along the entry.
UniProt P01009, residues 25-418: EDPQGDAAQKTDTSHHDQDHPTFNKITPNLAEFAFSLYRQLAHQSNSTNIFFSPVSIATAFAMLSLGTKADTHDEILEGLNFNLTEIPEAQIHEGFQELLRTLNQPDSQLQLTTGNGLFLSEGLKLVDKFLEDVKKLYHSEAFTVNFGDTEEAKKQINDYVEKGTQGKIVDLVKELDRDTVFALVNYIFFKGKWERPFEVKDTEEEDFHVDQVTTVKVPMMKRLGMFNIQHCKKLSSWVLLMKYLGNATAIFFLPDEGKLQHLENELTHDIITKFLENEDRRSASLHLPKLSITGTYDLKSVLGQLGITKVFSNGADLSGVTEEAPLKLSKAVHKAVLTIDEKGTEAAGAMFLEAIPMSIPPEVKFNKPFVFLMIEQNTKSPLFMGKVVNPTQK
UniProt P01024, residues 672-748: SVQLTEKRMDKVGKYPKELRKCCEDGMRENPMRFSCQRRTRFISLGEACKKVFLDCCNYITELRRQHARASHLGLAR

Target: commercial human plasma-derived α-1-antitrypsin (human) (UniProt P01009)
Assay: anaphylatoxins detected by cytometric bead array in purified plasma-derived α-1-antitrypsin; CBA anaphylatoxin flex set on commercial human plasma-derived and recombinant α-1-antitrypsin preparations

## C3a present in human plasma-derived α-1-antitrypsin (from UniProt P01024 672-748)
  binding: binds
